Reference: article PMC12501288
No constants are given. Whether binding was seen depends on the method and setting. In cells and extracts the contact can be indirect. For some of these results: Binding calls can cover weak binding; strength is not graded here.

By UniProt entry, the sequences of proteins in these tests, tags left out. Where a name states a change or a piece, a line headed by the entry shows the natural chain unless it says otherwise.
UniProt P01106: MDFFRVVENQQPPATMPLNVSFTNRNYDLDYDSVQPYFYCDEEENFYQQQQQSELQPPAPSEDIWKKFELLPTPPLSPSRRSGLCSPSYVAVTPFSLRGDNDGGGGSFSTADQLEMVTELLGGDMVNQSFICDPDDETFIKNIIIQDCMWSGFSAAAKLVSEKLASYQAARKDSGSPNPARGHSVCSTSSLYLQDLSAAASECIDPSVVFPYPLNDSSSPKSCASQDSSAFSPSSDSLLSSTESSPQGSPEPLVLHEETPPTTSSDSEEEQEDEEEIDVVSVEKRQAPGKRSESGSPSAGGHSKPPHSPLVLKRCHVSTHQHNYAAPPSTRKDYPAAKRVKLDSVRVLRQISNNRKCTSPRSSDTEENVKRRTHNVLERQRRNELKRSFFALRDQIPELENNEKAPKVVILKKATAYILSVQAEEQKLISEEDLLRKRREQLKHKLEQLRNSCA
UniProt Q13950: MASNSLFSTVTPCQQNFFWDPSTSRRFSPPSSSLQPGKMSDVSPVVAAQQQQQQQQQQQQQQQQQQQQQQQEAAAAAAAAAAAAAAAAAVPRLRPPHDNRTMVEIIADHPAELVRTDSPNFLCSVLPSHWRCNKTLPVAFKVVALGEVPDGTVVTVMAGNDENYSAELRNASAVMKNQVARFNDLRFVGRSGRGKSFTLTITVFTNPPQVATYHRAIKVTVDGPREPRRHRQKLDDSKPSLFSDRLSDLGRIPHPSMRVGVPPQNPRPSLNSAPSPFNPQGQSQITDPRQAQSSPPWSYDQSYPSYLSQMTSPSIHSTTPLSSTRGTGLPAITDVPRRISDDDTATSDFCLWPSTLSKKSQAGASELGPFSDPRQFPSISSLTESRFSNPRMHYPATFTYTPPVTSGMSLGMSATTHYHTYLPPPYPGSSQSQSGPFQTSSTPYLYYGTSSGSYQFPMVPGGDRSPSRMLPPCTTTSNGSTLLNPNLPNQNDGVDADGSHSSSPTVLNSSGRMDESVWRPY

How the values were obtained:
Assay in all cases: co-IP; 293T cells co-transfected with Flag-tagged RUNX2 (full length or deletion mutants) and HA-tagged c-Myc (full length or deletion mutants); lysed in IP buffer, antibody overnight at 4 °C, protein A/G beads, immunoblot
[1] = biological target: HA-tagged full-length c-Myc (not stated (human or mouse cDNA cloned)) (UniProt P01106)
[2] = biological target: HA-tagged c-Myc mutant lacking the MB1 domain (not stated (human or mouse cDNA cloned)) (UniProt P01106)
[3] = biological target: HA-tagged c-Myc mutant lacking the MB2 domain (not stated (human or mouse cDNA cloned)) (UniProt P01106)
[4] = biological target: HA-tagged c-Myc mutant lacking the MB3 domain (not stated (human or mouse cDNA cloned)) (UniProt P01106)

Row | Substance | binding [1] | binding [2] | binding [3] | binding [4]
1 | Flag-tagged RUNX2 mutant lacking the Runt-homology domain (from UniProt Q13950) | no binding | – | – | –
2 | Flag-tagged full-length RUNX2 (Runt-related transcription factor 2) (from UniProt Q13950 1-521) | – | no binding | binds | binds
